Measurements as given in the supplement of paper PMC12889115.
Some of the results follow. Values are raw readings; no control value is given beside them.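 In the initial screen, polymyxin B was used at a concentration that permeabilizes Salmonella's outer membrane but not its inner membrane. Maximum growth was set by DMSO wells with or without polymyxin B. Since plates varied, data were ranked per plate, and compounds giving the lowest OD600 advanced as hits.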

System: Salmonella enterica serovar Typhimurium SL1344
Test: bacterial growth OD600 after 18 h with compound and polymyxin B; higher = more bacterial growth (less inhibition)
Conditions: 50 µM, Mueller-Hinton broth

Compound | bacterial growth OD600 (polymyxin B 0.75 µg/mL) | bacterial growth OD600 (polymyxin B 1 µg/mL)
COCCN1C(=O)NC(Cc2ccc(F)cc2)(C2CCN(C(=O)c3c(F)cccc3F)CC2)C1=O (stereo unspecified) | 0.818 | 
Cn1nc(C(=O)N2CCCC(CCc3cccc(F)c3)C2)ccc1=O (stereo unspecified) | 0.16 | 
COc1ccccc1CCN1CCCC(CN(C)C(=O)c2cccnc2)C1 (stereo unspecified) |  | 0.782
COC(=O)c1ccc(N2C[C@H]3OC(=O)N(CCc4ccc(OC)cc4)[C@H]3C2)nc1 | 0.875 | 
CCOC(=O)C1(Cc2ccccc2)CCN(Cc2ccc(NC(C)=O)cc2)CC1 |  | 0.808
COc1ccc(CN2CCNC(=O)C2CC(=O)N2CCN(c3ccccc3C)CC2)cc1C (stereo unspecified) |  | 1.25
CCCc1cc(CN(C)C(=O)CC2C(=O)NCCN2CCCc2ccccc2)n[nH]1 (stereo unspecified) |  | 1.01
C=CCNC(=O)Cc1c2c(n(CCc3ccccc3)c1C)CCCC2=O |  | 0.745
CN(Cc1cnccn1)C(=O)c1csc2nc(-c3cccc(C(F)(F)F)c3)cn12 |  | 1.13
CCOC(=O)CNC(=O)N1CCCC(C(=O)c2cccc(OC(C)C)c2)C1 (stereo unspecified) |  | 0.864
O=C(CCc1ccncc1)NC1CCCN(C2CCCCCC2)C1 (stereo unspecified) |  | 0.868
CC(C)Cc1ccc(CN2CCCC(NC(=O)c3ccc4c(c3)no[n+]4[O-])C2)cc1 (stereo unspecified) |  | 0.659
Cn1nccc1C(=O)N1CCc2[nH]nc(-c3ccc4c(c3)OCO4)c2C1 | 0.873 | 
O=C(CCCc1cccs1)N1CCOc2ccc(C(O)C(c3ccccc3)c3ccccc3)cc2C1 (stereo unspecified) | 0.012 | 
COC(=O)c1ccc(CNC2CCN(c3ccc(C(=O)NC4CCCC4)cc3)CC2)cc1 | 0.855 | 
O=C(CC1CC1)NC1CC(=O)N(Cc2ccccc2C(F)(F)F)C1 (stereo unspecified) |  | 0.891

Compound | bacterial growth OD600 (polymyxin B 0.75 µg/mL) | bacterial growth OD600 (polymyxin B 1 µg/mL)
COc1cc(F)ccc1CNCc1cccnc1N1CCOCC1 |  | 0.973
COCC(=O)Nc1cc(C(=O)N2C[C@@H](C)O[C@@H](C)C2)c2c(c1)ncn2Cc1ccc(F)cc1 | 0.839 | 
COc1ccc(CCCN2C(=O)O[C@@H]3CN(C4CCCC4)C[C@@H]32)cc1 |  | 0.903
c1nc(N2CCCC2)sc1CN1CCC2(CCCN(CC3CC3)C2)C1 (stereo unspecified) |  | 1.02
Cc1ccc(C(=O)Nc2ccc(N3CCC(NCCCc4ccncc4)CC3)cc2)c(C)c1 | 0.726 | 
CC1CN(Cc2ccc3nsnc3c2)Cc2cc(Cl)ccc2O1 (stereo unspecified) | 0.037 | 
Cc1nn(C)c(C)c1CN(C)c1ccc(C(=O)NCc2noc(C(C)C)n2)cn1 |  | 1.23
Cc1ncsc1CN(Cc1ccccc1)C(=O)C1CCC(=O)N(C2CC2)C1 (stereo unspecified) |  | 0.886
CCOC(=O)C1(CCCc2ccccc2)CCN(C(=O)CCn2cncn2)CC1 |  | 0.812
O=C(CCC(F)(F)F)N1CCc2[nH]nc(-c3ccc(F)c(F)c3)c2C1 | 0.949 | 
CCOCCCNC(=O)c1cc(NS(=O)(=O)N(C)C)cc2nc(CC(C)C)n(C)c12 | 0.922 | 
Cc1nc(C)c(CN2CC[C@@H](N3CCN(c4ccccn4)CC3)[C@H](O)C2)nc1C |  | 0.901
CCn1nc(C)cc1C(=O)N1CCC(C2CCN(CC(C)C)CC2)C1 (stereo unspecified) | 0.806 | 
O=C1CCC(C(=O)N2CCS(=O)(=O)CC2)CN1CCCc1ccccc1 (stereo unspecified) |  | 0.953
Cc1nc2ccc(C(=O)N(C)C3CCCN(Cc4ccccc4F)C3)cc2nc1C (stereo unspecified) |  | 0.895

Sorted by count of non-hydrogen atoms (largest number first): 3 of the compounds above.
Compound | bacterial growth OD600 (polymyxin B 0.75 µg/mL) | bacterial growth OD600 (polymyxin B 1 µg/mL)
Cc1nc(C)c(CN2CC[C@@H](N3CCN(c4ccccn4)CC3)[C@H](O)C2)nc1C |  | 0.901
O=C1CCC(C(=O)N2CCS(=O)(=O)CC2)CN1CCCc1ccccc1 (stereo unspecified) |  | 0.953
COc1cc(F)ccc1CNCc1cccnc1N1CCOCC1 |  | 0.973
